Values quoted from earlier work in patent US20110105349A1, “USE OF A MONOPHOSPHATE ESTER OF A PHTHALEIN COMPOUND AS A SUBSTRATE FOR TARTRATE-RESISTANT ACID PHOSPHATASE B5 (TRAP 5B)” (MUNODIAGNOSTIC SYSTEMS LIMITED, priority 2008, published 2011).
For at least one compound, name, drawing or mass did not settle the structure.

Details: cited from earlier work

## O=[N+]([O-])c1ccc(OP(=O)(O)O)cc1 [pNPP, p-nitrophenyl phosphate, reference compound]
  stability in solution: not stable in solution
